In PMC8989877:
These are yes or no findings as the source states them, for the method shown. Binding seen in cells or lysates may run through a third protein. Some results given as binding are weak or reduced against the parent protein; the word gives no strength.

The chains behind the UniProt entries cited, without tags or fusion partners.
UniProt P28033: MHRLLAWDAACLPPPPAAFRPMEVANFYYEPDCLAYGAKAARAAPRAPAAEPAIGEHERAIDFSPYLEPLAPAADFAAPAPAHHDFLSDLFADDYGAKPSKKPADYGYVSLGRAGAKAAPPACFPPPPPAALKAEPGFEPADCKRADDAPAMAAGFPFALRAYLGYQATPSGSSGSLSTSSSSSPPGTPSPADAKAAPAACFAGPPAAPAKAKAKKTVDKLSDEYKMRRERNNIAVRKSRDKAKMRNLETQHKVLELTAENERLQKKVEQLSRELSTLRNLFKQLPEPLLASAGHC
UniProt Q04207: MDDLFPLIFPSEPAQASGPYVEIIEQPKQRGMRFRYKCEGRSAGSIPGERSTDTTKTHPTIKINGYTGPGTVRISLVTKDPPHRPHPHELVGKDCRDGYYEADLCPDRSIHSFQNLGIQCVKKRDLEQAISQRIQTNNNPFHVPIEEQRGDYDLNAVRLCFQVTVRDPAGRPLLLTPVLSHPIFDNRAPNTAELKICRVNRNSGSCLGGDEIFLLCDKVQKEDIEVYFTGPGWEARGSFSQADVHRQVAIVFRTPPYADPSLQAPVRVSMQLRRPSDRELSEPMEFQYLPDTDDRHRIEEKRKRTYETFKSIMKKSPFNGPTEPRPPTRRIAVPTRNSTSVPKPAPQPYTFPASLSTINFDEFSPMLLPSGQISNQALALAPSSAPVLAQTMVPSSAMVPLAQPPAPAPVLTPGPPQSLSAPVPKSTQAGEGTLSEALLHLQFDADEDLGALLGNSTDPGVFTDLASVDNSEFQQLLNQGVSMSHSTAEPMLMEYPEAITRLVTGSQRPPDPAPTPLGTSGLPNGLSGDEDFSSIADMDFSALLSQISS

Molecular target: CEBPβ (CCAAT-enhancer-binding protein β), mouse brain (mouse (endogenous in APP/PS1 and C57BL/6 mouse brain)) (UniProt P28033)
Experiment: co-IP; brain homogenates of APP/PS1 Tg and WT mice treated with vehicle or CA-SBEβCD NPs (10 or 30 mg/kg CA, 5 months); IP with anti-CEBPβ antibody or control IgG, 16 h at 4 °C, True-Blot IP beads; blot with anti-NFκB antibodies

binding: binds
Substance: NFκB p65 subunit, mouse brain (from UniProt Q04207 1-549)
